PubChem BioAssay AID1259254 – NCATS | 2017

Aim: 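Genome-wide screen for genes that prevent DNA re-replication in cancer cells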 (primary screen)
Cell system: human HCT116 colorectal cancer cells
Reagent: single siRNA against human genes
Timing: 3 days
Detection: 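Nuclei stained with Hoechst and imaged; cell-cycle phase assigned by DNA content; G2 share scaled per plate, non-targeting siRNA 0%, GMNN siRNA 100%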
Scale: G2 robust z-score and G2 cells, % of GMNN control: higher = more G2 cells, more excess DNA replication
Call rule: 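Active siRNAs have a G2 robust z of 5 or more median absolute deviations over the median, which in these data means about 38% or higher of GMNN control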
In all, the deposit lists about 59,000 reagents; this is a part drawn at random. About 1,550 of them (2.6%) were called active. 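G2 share is only a proxy for re-replication; each gene was hit by three separate siRNAs, and active genes were retested.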 Entries without a mark were called inactive. Reagents against one gene are numbered here. Further read-outs or replicates are left out here. The record does not give: the amount of reagent.

What is on record for AGBL4 #1?
G2 robust z-score: 2.36; G2 cells, % of GMNN control: 19.6

What did the screen give for AGBL4 #2?
G2 robust z-score: -0.572; G2 cells, % of GMNN control: -1.06

How did the screen score AGBL4 #3?
G2 robust z-score: 0.654; G2 cells, % of GMNN control: 7.57

For AADACL4 #1, what was measured?
G2 robust z-score: -0.17; G2 cells, % of GMNN control: 1.77

What did the screen give for AADACL4 #2?
G2 robust z-score: 1.25; G2 cells, % of GMNN control: 11.7

With AADACL4 #3, what was measured?
G2 robust z-score: -0.0184; G2 cells, % of GMNN control: 2.84

For EIF1 #1, how do the results read?
G2 robust z-score: 0.111; G2 cells, % of GMNN control: 3.75

With EIF1 #2, how do the results read?
G2 robust z-score: -0.609; G2 cells, % of GMNN control: -1.32

With EIF1 #3, how do the results read?
G2 robust z-score: -0.493; G2 cells, % of GMNN control: -0.499

For ZNF367 #1, what was measured?
G2 robust z-score: -0.156; G2 cells, % of GMNN control: 1.87

For ZNF367 #2, what does the deposit list?
G2 robust z-score: 0.774; G2 cells, % of GMNN control: 8.41

For ZNF367 #3, how do the results read?
G2 robust z-score: -0.705; G2 cells, % of GMNN control: -1.99

With KLHL29 #1, how do the results read?
G2 robust z-score: -0.173; G2 cells, % of GMNN control: 1.75

What did the screen give for KLHL29 #2?
G2 robust z-score: 0.508; G2 cells, % of GMNN control: 6.54

For KLHL29 #3, how do the results read?
G2 robust z-score: 0.106; G2 cells, % of GMNN control: 3.71

For PARP15 #1, what was measured?
G2 robust z-score: 1.32; G2 cells, % of GMNN control: 12.3

For PARP15 #2, what was measured?
G2 robust z-score: 0.281; G2 cells, % of GMNN control: 4.94

With PARP15 #3, what was measured?
G2 robust z-score: -1.06; G2 cells, % of GMNN control: -4.5

What did the screen give for CNTNAP5 #1?
G2 robust z-score: 0.787; G2 cells, % of GMNN control: 8.5

What did the screen give for CNTNAP5 #2?
G2 robust z-score: 1.8; G2 cells, % of GMNN control: 15.6

What did the screen give for CNTNAP5 #3?
G2 robust z-score: -0.402; G2 cells, % of GMNN control: 0.137

With OR51F2 #1, what does the deposit list?
G2 robust z-score: 6.41 (active); G2 cells, % of GMNN control: 48.1

What is on record for OR51F2 #2?
G2 robust z-score: -0.597; G2 cells, % of GMNN control: -1.23

How did the screen score OR51F2 #3?
G2 robust z-score: 0.119; G2 cells, % of GMNN control: 3.8

A portion taken from the entries so far:
ZNF367 #3: G2 robust z-score = -0.705; G2 cells, % of GMNN control = -1.99
KLHL29 #1: G2 robust z-score = -0.173; G2 cells, % of GMNN control = 1.75
KLHL29 #2: G2 robust z-score = 0.508; G2 cells, % of GMNN control = 6.54
KLHL29 #3: G2 robust z-score = 0.106; G2 cells, % of GMNN control = 3.71
